Results on two substances are retold here after patent US5712367A (Rhone-Poulenc Chimie, priority 1989, dated 1998).

The data set in a line: general procedure: solution-phase peptide synthesis. The settings on record: for step yield: late stage modification step.

Consider “L-tyrosyl-glycyl-glycyl-L-phenylalanyl-L-leucine”, for which the step yield by setting is: (HPLC assay after Boc cleavage) 100%; (relative to the N-tert-butyloxycarbonyl-L-tyrosyl-glycyl-glycyl-L-phenylalanyl-L-leucine) 92.5%.

Take “N-tert-butyloxycarbonyl-L-tyrosyl-glycyl-glycyl-L-phenylalanyl-L-leucine”: the crude yield reads like this: (whole synthesis) 100%; (whole synthesis, relative to the L-leucine 4(hydroxymethyl)biphenyl 3-methylbenzoate ester hydrochloride) 94.5%. Where the note is “whole synthesis”, this substance returned an isolated yield of 71%.
